18 molecules from publication PMC10163288 can be followed below.

B1: il2ra_site2_3nfp_sap_30_mot_HHH_b1_02173_000000190_0001_1_18_H_._c1e259e16b19a3635eeea4582300f2e1_0001_af2_0001_0001400011_0000001_0_0001_af2pred_0001_af2pred (protein)
chain: SSSSSEEEKVEKIFREAEELLERGNPEEARRLLLRLLEELRELGDTQLILRIAELALKVLGSSSS
B2: il2ra_site2_2erj_normal_mot_HHH_b2_05722_000000033_0001_22_38_H_._HHH_b1_00927_0001_0001600018_0000001_0 (protein)
chain: SSSSSEEEEIEELFRKAEELLREGNPEEAEEVLREAFERAARLGNHELAAELIKLAAELFSSSSS
B3: il2ra_site2_3nfp_normal_mot_HHH_b2_00615_000000276_0001_1_15_H_._HHH_b2_07007_0001_0000900113_0000001_0 (protein)
chain: SSSSDNLEAWELLQEAVHLAREGNPEEARKLLEEAEEIAKKADSRVLRRSIEDVKELVERLSSSS
B4: il2ra_site2_2erj_normal_mot_90f6a21de4ed711cb697bb9f61d9c40c_0001_af2_000000135_0001_36_50_H_._HHH_b1_07609_0001_0000400038_0000001_1_af2pred_0001_af2pred (protein)
chain: SSSDLEEELRELVEELVEELGLSEEAKRWLELLAEELVKQGASPELAREQLKLSAELAHEALSSS
B5: il2ra_site1_3nfp_normal_mot_HHH_b2_02066_af2_000000034_0001_1_16_H_._HHH_b1_04414_0001_0000100003_0000001_0 (protein)
chain: SSSSNEELLELVEEIWELSREGDDEQAREVLEEAKRLAEELGSKAARIFLERLEKLLRLKSSSSS
B6: il2ra_site2_2erj_normal_mot_HHH_b2_05804_000000098_0001_44_58_H_._HHH_b2_01306_af2_0001_0001100019_0000001_0 (protein)
chain: SSSSDEEWEEVAELLVEALELYRNGNPEEAKKVLEEAERIAEELNDEFLKRYVEFARRAASSSSS
B7: il2ra_site1_2b5i_normal_mot_f5ff40796168375b462bec8614a1db4a_0001_1_000000138_0001_53_65_H_._HHH_b1_07617_0001_0000100010_0000001_0_af2pred_dldesign_0_af2pred (protein)
chain: SSSSDLKEDVEALIKKAKELYEEGKKEEAKKLLILARRIAKKAKDEETLKKIDELLKEIEESSSS
B8: il2ra_site1_1z92_sap_12_mot_HHH_b2_00969_af2_000000010_0001_43_57_H_._HHH_b1_02957_0001_0000200009_0000001_0_0001_af2pred_0001_af2pred (protein)
chain: SSSSSDEAKRLSRFIAELAIEFKLTLEDLRELNELALELLQRGYSEEEIEELLHEEAKRLSSSSS
B9: il2ra_site1_3nfp_sap_13_mot_HHH_b2_00334_000000219_0001_1_18_H_._a7b25d948053501ad451c9618b38fcae_0001_0001_0000300026_0000001_0_0001_af2pred_0001_af2pred (protein)
chain: SSSSSDEFREEVEELLEEAKRIEDVREASKLLREALKLALEGDDEEAWKLVEKVIRELARSSSSS
B10: il2ra_site1_2b5i_normal_mot_HHH_b1_02271_000000068_0001_1_16_H_._HHH_b2_04633_af2_0001_0000400024_0000001_0_af2pred_dldesign_0_af2pred (protein)
chain: SSSSSSDLEALEARARELAAAGKRREALELLEKAYKEAAAAGDEEAEERLYELAKELKSSSSSSS
B11: il2ra_site2_3nfp_normal_mot_HHH_b2_05513_000000198_0001_20_37_H_._52c50354b804bec8c3157ba16786ada3_0001_0001_0000200004_0000001_0 (protein)
chain: DELEERLRRSAELAGNPEDAVIFFIALLEVELGDPEEAIELAEEVAKALGDPELERIIEEILHAP
B12: il2ra_site1_2b5i_sap_9_mot_HHH_b1_01419_af2_000000080_0001_42_53_H_._HHH_b1_01907_af2_0001_0000100002_0000001_0_0001_af2pred_0001_af2pred_1 (protein)
chain: SSSSDEVLEEILRLFREASELFRKGNHEEARKLLEEALELAEEFNDEVAFRDVRFMLEKLNSSSS
B13: il2ra_site1_3nfp_normal_mot_46d73865503fbedcaf0f3a45445d594c_0001_af2_000000151_0001_1_12_H_._HEEHE_1219_af2_0001_0000300007_0000001_0 (protein)
chain: DDRRVVERLVERAARSAGVENVEVTIHNGTLHVTVEGDDEAARAVKEAVEDLAERLGISVEYSHK
B14: il2ra_site2_2erj_normal_mot_HHH_b1_05537_000000062_0001_1_19_H_._HHH_b1_00607_0001_0001200011_0000001_0 (protein)
chain: SSSSSDREEVERLLREIEEALEEGDKEKVVELLLEVARLALEIGDEELSYEVYRLMRLNASSSSS
B15: il2ra_site1_3nfp_normal_mot_HHH_b2_00696_000000030_0001_18_34_H_._HHH_b1_05030_0001_0000400016_0000001_0_af2pred_0001_af2pred (protein)
chain: SSSSSSEAEEIARELEQRIREAKSKRERIHLLIKALLIVQELKNKEALEIIEELVKEIRDSSSSS
B16: il2ra_site1_2b5i_normal_mot_HHH_b2_04910_000000118_0001_1_19_H_._HHH_b2_02918_af2_0001_0000300006_0000001_0_af2pred_0001_af2pred (protein)
chain: SSSSSSEKEEARRLLEEADEAFRRGDDEEARKLLEEALQAAEEANNPLLARSIESMLEQVSSSSS
B17: il2ra_site2_2erj_sap_18_mot_HHH_b2_03659_000000135_0001_38_56_H_._HHH_b1_00300_af2_0001_0000100004_0000001_0_0001 (protein)
chain: SSSSSEEEVEELIKEAEQLLEEGDPEKAEEVLSRAFELAYEANDPELAAKVIELIAKIAKSSSSS
B18: il2ra_site2_2erj_sap_17_mot_HHH_b1_05666_000000037_0001_42_55_H_._HHH_b2_00709_0001_0000200006_0000001_0_0001 (protein)
chain: SSSSSDEIHRAYELAEELIKLVQNNDRERFEEISEEFREIVERLKSRSAEEILEWLERHLSSSSS

The list shows a part of the results.

The assay has as its target il2ra, P01589. Description: yeast display titration.
For B1, the “apparent Kd” value was “inactive: no binding seen”.

Consider B2, for which the “apparent Kd” value is “inactive: no binding seen”.

As for B3, the “apparent Kd” value was “inactive: no binding seen”.

Consider B4, for which the “apparent Kd” value is “inactive: no binding seen”.

For B5, the “apparent Kd” value is “inactive: no binding seen”.

In the case of B6, the “apparent Kd” value is “inactive: no binding seen”.

Turning to B7, the “apparent Kd” value is “inactive: no binding seen”.

As for B8, the “apparent Kd” value is “inactive: no binding seen”.

As for B9, the “apparent Kd” value is “inactive: no binding seen”.

Consider B10, for which the “apparent Kd” value is “inactive: no binding seen”.

Consider B11, for which the “apparent Kd” value is “inactive: no binding seen”.

As to B12, the “apparent Kd” value is “inactive: no binding seen”.

Turning to B13, the “apparent Kd” value is “inactive: no binding seen”.

In the case of B14, the “apparent Kd” value was “inactive: no binding seen”.

As to B15, the “apparent Kd” value was “inactive: no binding seen”.

For the molecule B16, the “apparent Kd” value is “inactive: no binding seen”.

B17: the “apparent Kd” value is “inactive: no binding seen”.

For the molecule B18, the “apparent Kd” value was “inactive: no binding seen”.
